Measured values reported in publication PMC8500230.
These are yes or no findings as the source states them, for the method shown. In cells and extracts the contact can be indirect. These calls come from enrichment with a bait or labelling near it, and not all partners need be listed. For some of these results: Tags and fused reporters may be left off the sequences shown. Blank lines part the entries; values can stand above or below the binder they belong to.

Tests used:
[1] = molecular target: N-terminally tagged LIN52A (TAP bait) (Arabidopsis thaliana); test: affinity purification with mass spectrometry; tandem affinity purification (GS^rhino tag) from Arabidopsis PSB-D cell suspension cultures expressing the tagged bait under the 35S promoter; 30 uM cisplatin added 16 h before harvest; 100 mg total protein extract; on-bead digest, LC-MS/MS; in …
[2] = molecular target: T1, RBR1-GFP (Arabidopsis thaliana), Q9LKZ3; test: affinity purification with mass spectrometry; FP-IP: anti-GFP antibody on magnetic beads, total protein extracts (4 mg/IP) of Arabidopsis seedlings expressing the GFP- or CFP-tagged bait under its own promoter; GFP alone as control; standard conditions, various growth regimes (meta-analysis of 182 IPs), with or without 50 uM cisplatin for 24 h; label-free LC-MS/MS; conditions: remark: other sources report otherwise
T1 chain: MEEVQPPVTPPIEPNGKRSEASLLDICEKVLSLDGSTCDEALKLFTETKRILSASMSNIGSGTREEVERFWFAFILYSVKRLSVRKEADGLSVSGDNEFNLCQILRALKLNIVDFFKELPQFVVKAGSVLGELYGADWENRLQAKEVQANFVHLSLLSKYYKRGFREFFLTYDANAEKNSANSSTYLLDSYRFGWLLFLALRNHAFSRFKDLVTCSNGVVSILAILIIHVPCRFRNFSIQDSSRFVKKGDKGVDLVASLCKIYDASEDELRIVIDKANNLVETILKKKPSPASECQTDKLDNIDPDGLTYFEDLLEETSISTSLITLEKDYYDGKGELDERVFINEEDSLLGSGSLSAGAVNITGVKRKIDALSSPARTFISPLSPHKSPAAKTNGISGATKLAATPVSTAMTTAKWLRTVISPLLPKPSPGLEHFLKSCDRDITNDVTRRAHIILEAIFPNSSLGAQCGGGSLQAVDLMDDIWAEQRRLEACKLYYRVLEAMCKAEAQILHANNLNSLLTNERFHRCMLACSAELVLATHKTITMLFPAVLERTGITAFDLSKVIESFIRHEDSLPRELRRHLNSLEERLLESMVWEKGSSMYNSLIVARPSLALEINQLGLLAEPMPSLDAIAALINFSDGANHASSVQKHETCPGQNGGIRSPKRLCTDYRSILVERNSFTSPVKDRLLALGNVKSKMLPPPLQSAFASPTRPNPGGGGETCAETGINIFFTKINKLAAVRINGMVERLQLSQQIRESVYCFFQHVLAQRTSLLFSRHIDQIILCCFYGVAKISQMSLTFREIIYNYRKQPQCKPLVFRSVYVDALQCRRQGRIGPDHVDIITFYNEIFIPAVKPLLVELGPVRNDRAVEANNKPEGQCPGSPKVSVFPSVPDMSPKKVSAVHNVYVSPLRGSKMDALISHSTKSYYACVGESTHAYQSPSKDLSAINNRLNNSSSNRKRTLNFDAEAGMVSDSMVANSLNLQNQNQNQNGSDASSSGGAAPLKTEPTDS

[3] = molecular target: T2, N-terminally tagged RBR1 (TAP bait) (Arabidopsis thaliana), Q9LKZ3; test: affinity purification with mass spectrometry; tandem affinity purification (GS^rhino tag) from Arabidopsis PSB-D cell suspension cultures expressing the tagged bait under the 35S promoter; 30 uM cisplatin added 16 h before harvest; 100 mg total protein extract; on-bead digest, LC-MS/MS; in …; conditions: remark: other sources report otherwise
T2 chain: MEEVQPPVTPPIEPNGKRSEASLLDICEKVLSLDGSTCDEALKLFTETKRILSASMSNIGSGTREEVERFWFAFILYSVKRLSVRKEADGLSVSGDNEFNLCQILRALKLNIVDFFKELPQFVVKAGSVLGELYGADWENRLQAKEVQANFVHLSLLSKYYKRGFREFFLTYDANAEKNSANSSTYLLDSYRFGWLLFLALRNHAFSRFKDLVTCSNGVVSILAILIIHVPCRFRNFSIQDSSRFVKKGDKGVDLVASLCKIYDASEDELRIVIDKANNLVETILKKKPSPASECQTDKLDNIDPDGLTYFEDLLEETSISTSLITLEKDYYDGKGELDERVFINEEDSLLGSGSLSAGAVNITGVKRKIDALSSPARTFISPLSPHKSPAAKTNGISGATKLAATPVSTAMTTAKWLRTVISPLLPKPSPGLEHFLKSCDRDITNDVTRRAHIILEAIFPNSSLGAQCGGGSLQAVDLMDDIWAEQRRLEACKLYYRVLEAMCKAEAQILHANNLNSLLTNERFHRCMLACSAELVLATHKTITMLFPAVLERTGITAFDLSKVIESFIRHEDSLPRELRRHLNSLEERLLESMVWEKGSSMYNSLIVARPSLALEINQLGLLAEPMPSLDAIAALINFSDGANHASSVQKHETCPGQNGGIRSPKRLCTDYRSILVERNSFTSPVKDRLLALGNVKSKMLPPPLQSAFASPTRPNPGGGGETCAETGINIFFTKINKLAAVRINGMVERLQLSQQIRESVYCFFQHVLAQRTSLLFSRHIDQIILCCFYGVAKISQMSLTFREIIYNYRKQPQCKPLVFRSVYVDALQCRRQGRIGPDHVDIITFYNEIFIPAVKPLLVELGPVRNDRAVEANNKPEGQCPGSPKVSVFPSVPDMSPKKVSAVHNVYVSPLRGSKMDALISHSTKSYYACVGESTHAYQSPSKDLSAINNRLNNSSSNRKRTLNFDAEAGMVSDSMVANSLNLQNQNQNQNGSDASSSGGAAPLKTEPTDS

[4] = molecular target: T3, RBR1-GFP (Arabidopsis thaliana) (UniProt Q9LKZ3); test: affinity purification with mass spectrometry; FP-IP: anti-GFP antibody on magnetic beads, total protein extracts (4 mg/IP) of Arabidopsis seedlings expressing the GFP- or CFP-tagged bait under its own promoter; GFP alone as control; standard conditions, various growth regimes (meta-analysis of 182 IPs), with or without 50 uM cisplatin for 24 h; label-free LC-MS/MS
T3 sequence: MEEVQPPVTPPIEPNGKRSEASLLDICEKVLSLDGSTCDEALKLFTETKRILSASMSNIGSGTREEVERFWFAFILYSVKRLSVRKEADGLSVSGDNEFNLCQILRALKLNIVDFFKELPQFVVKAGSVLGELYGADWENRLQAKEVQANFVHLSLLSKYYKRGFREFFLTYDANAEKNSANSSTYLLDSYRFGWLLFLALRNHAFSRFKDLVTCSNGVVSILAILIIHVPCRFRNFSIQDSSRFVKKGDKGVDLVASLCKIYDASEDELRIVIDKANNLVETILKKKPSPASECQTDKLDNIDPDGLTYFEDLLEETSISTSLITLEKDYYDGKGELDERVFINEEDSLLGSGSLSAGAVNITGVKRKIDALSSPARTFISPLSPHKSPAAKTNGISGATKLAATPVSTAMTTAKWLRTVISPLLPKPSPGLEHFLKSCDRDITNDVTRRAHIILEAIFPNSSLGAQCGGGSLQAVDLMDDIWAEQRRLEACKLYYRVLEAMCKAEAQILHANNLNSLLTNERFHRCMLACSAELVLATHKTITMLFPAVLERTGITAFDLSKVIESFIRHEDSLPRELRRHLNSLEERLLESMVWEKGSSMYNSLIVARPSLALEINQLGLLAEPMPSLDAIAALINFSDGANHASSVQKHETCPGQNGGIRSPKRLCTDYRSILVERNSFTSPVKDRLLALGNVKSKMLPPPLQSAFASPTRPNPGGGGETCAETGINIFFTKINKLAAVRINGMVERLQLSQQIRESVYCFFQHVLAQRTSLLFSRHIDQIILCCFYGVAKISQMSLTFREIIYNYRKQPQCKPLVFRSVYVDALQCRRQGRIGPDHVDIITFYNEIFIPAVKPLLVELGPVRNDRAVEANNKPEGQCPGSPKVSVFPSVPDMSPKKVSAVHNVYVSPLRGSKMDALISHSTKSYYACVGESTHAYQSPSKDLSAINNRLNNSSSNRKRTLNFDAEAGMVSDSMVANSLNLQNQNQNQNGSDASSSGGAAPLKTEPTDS

binding [1]: binds
B1: TCX6/LIN54B (protein, UniProt Q9SL70 1-571)
chain: MGEGEEGDKFPPKTDEVTQESMKSARQLDFTGGSSDVEHSHSNQASSMAAASIPSPIVTVTRPIITSQAPPTVATPIPPPPQSQGIILHVPIRHPRPESPNSMPRPAGETRDGTPQKKKQCNCKHSRCLKLYCECFASGTYCDGCNCVNCFNNVENEPARRQAVESTLERNPNAFRPKIAASPHGGRDNREEVGDVVMLARHNKGCHCKKSGCLKKYCECFQANILCSENCKCLDCKNFEGSEVRQSLFHGEHSHNLAYLQHANAAITGAIGSSGFASAPPPKRRKGQEIFFNQGTKDSSTHRLGQANNGRTTSSQTGSRAGGNASLGPSKVVYKSLLANIIKPMDVKALCSVLVAVAGEAAKTLTEKRLANQKETSVASSVQDQGHVNNKAEKSGLEDSNADGSKGRSLSPETLALMCDERDTMLMVAASPNCSVEPTSQLPNGQDQVYAEQEKVVLTKFRDCLNRIISCGEVKESNCSMSRMDLDTPVQTTVRIDPVVQQAPVANGVSQTAKQPSQLNTTTPNTSSQTANGVSQTAKQPSQLTTTTTTPNTSSQTHLHKTPALSEKKDL

binding [2]: binds
binding [3]: binds
B2: DPB, Q9FNY2 1-385 (protein)
chain: MTTTGSNSNHNHHESNNNNNNPSTRSWGTAVSGQSVSTSGSMGSPSSRSEQTITVVTSTSDTTFQRLNNLDIQGDDAGSQGASGVKKKKRGQRAAGPDKTGRGLRQFSMKVCEKVESKGRTTYNEVADELVAEFALPNNDGTSPDQQQYDEKNIRRRVYDALNVLMAMDIISKDKKEIQWRGLPRTSLSDIEELKNERLSLRNRIEKKTAYSQELEEQYVGLQNLIQRNEHLYSSGNAPSGGVALPFILVQTRPHATVEVEISEDMQLVHFDFNSTPFELHDDNFVLKTMKFCDQPPQQPNGRNNSQLVCHNFTPENPNKGPSTGPTPQLDMYETHLQSQQHQQHSQLQIIPMPETNNVTSSADTAPVKSPSLPGIMNSSMKPEN

binding [4]: binds
B3: MSI4 (protein, UniProt O22607 1-507)
chain: MESDEAAAVSPQATTPSGGTGASGPKKRGRKPKTKEDSQTPSSQQQSDVKMKESGKKTQQSPSVDEKYSQWKGLVPILYDWLANHNLVWPSLSCRWGPQLEQATYKNRQRLYLSEQTDGSVPNTLVIANCEVVKPRVAAAEHISQFNEEARSPFVKKYKTIIHPGEVNRIRELPQNSKIVATHTDSPDVLIWDVETQPNRHAVLGAANSRPDLILTGHQDNAEFALAMCPTEPFVLSGGKDKSVVLWSIQDHITTIGTDSKSSGSIIKQTGEGTDKNESPTVGPRGVYHGHEDTVEDVAFSPTSAQEFCSVGDDSCLILWDARTGTNPVTKVEKAHDADLHCVDWNPHDDNLILTGSADNTVRLFDRRKLTANGVGSPIYKFEGHKAAVLCVQWSPDKSSVFGSSAEDGLLNIWDYDRVSKKSDRAAKSPAGLFFQHAGHRDKVVDFHWNASDPWTIVSVSDDCETTGGGGTLQIWRMSDLIYRPEEEVVAELEKFKSHVMTCASKP
